The nature of this experiment: qHTS Assay for Lipid Storage Modulators in Drosophila S3 Cells.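 On cell number change: cells counted by Cell Tracker Red CMTPX staining in the red channel.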 Particulars: BODIPY lipid droplet fluorescence, 18-24 h; for cell number change: measured here: cell count max response, cells fed with added oleic acid. The method, boiled down: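 Laser-scanning cytometry quantifies lipid droplet accumulation (500–530 nm total intensity; droplet/cell object ratio) in oleic acid-fed (400 uM added) Drosophila S3 cells treated with a concentration series. 20 uM Triacsin C defined 100% inhibition.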

The mark [1] stands for this setting: measured here: lipid fluorescence (Fed channel) AC50, cells fed with added oleic acid.
The mark [2] stands for this setting: measured here: cell number channel AC50, cells fed with added oleic acid.

This is one part of the list. These are further read-outs of the screen, such as a control signal, another cell line or another target. No call is given for them. Most of these compounds were active or inconclusive in the main read-out, so they are no random draw. The note in brackets gives the kind of curve behind each potency; many fits are weak.

Turning to `CSc1cccc(NC(=O)CN(C)S(=O)(=O)c2ccc(C)cc2)c1`, the cell number change was -10.9%.

Take `Cc1ccc(NC(=O)c2ccc(NCC3CCCO3)c([N+](=O)[O-])c2)cc1Cl` (centres undefined): the cell number change turned out to be 3.97%.

With `Cc1ccc([N+](=O)[O-])cc1N=Nc1c(-c2ccc([N+](=O)[O-])cc2)[nH]n(C(N)=S)c1=O`, the cell number change is -16.8%. The half-maximal activity concentration (AC50) under setting [1] was 0.651 µM [falling, full curve, poor fit].

For `Cc1cc(C)cc(C(=O)NC(=S)Nc2ccc(Cc3ccncc3)cc2)c1`, the cell number change was -0.321%. The AC50 under setting [1] was 20.6 µM [rising, single point].

On to `Cc1ccnn2c(-c3ccccc3)c3c(=O)n(C)c(=O)n(C)c3c12`, for which the cell number change was found to be 4.97%. Further, under setting [1], the AC50 was 0.326 µM [rising, partial curve].

On to `COC(c1ccccc1)c1nnc(CCC(=O)NCc2cccc(-n3cccn3)c2)o1` (centres undefined), for which the cell number change is -52.3%. In addition, under setting [2], the AC50 was 8.2 µM [falling, partial curve]. Moreover, under setting [1], the AC50 is 6.51 µM [falling, partial curve].

As for `Brc1ccc(N=Cc2ccccn2)cc1`, the cell number change was -3.62%. Moreover, the AC50 under setting [1] is 20.6 µM [falling, single point].

In the case of `CN1C2CCC1/C(=C/c1cccn1C)C(=O)/C2=C\c1cccn1C`, the cell number change is -49.1%. For the same compound, the AC50 under setting [1] is 29.1 µM [rising, single point].

In the case of `O=C(Nc1cc2c3c(c1)CC(=O)N3CCC2)C1CCCCC1`, the cell number change was 38.9%. Besides, the AC50 under setting [2] was 1.64 µM [rising, partial curve]. Further, the AC50 under setting [1] is 6.51 µM [rising, partial curve].

For `CC(C)Sc1nc(-c2ccccc2)cc(=O)[nH]1`, the cell number change was 16.7%.

With `Cc1ccc(S(=O)(=O)NCCC(=O)OCC(=O)NCCc2ccccc2)cc1C`, the cell number change is -18.5%. Under setting [2], the AC50 is 0.0058 µM [falling, full curve, poor fit].

`CCNS(=O)(=O)c1ccc(CCC(=O)Nc2ccccc2C(=O)OC)cc1`: the cell number change worked out at 18.9%. Also, the concentration at half-maximal activity (AC50) under setting [1] was 7.31 µM [rising, partial curve, poor fit].

On to `CCc1ccccc1NC(=O)CN1C(=O)C2CCCN2c2ncc(Cl)cc21` (centres undefined), for which the AC50 by setting is: under setting [2], 0.231 µM [rising, full curve, poor fit]; under setting [1], 0.259 µM [rising, partial curve, poor fit].

`CCOC(=O)c1cc(S(=O)(=O)NCC2CCN(Cc3cccc(C)c3)CC2)cn1C`: the cell number change was found to be 91.4%. Also, under setting [2], the AC50 was 20.6 µM [rising, partial curve]. For the same compound, under setting [1], the AC50 was 29.1 µM [rising, single point].

As to `Cc1cccc(NC(=O)CSc2nnnn2C2CCCC2)c1`, the cell number change amounted to 17.1%.

Turning to `O=C(CSc1nnc(-c2ccco2)o1)c1ccccc1Cl`, the cell number change is -54.6%.

`COc1ccccc1NC(=O)c1ccc2nsnc2c1`: under setting [1], the AC50 was 8.91 µM [falling, partial curve].

`Cn1cnnc1-c1cccc(NC(=O)c2cc(F)c(F)cc2Cl)c1`: the cell number change amounted to 145%. Also, the AC50 under setting [2] was 29.1 µM [rising, single point]. The AC50 under setting [1] is 29.1 µM [rising, partial curve].

`COc1ccccc1NC(=O)N(Cc1cccs1)Cc1cc2cc3c(cc2[nH]c1=O)OCO3`: the cell number change is 21.3%. Besides, the AC50 under setting [1] is 0.0731 µM [rising, full curve, poor fit].

Consider `C=CCN(Cc1nc(-c2ccccc2)no1)C(=O)c1ccc2c(c1)OCO2`, for which the cell number change stood at 10.4%.

Take `CCN(CC)c1cccc(OCC(=O)N2c3ccccc3CC2C)c1` (centres undefined): the cell number change is -3.76%. The AC50 under setting [1] is 6.51 µM [falling, single point].

On to `Cc1cc(C)c(OCCCCn2cnc3ccccc3c2=O)c(C)c1`, for which the cell number change is -19%. Also, under setting [1], the AC50 was 0.58 µM [falling, full curve].

Turning to `Cn1c(=O)c2c(nc(NCC3CCCO3)n2C)n(C)c1=O` (centres undefined), the cell number change was -7.71%. Moreover, the AC50 under setting [1] is 5.8 µM [falling, full curve, poor fit].

As for `Cc1cc(=O)oc2cc(OCC(=O)N3CCN(C(=O)C4COc5ccccc5O4)CC3)ccc12` (centres undefined), the cell number change is -15.3%. The AC50 under setting [1] was 29.1 µM [falling, single point].

Take `C=C(C)CNC(=S)NNC(=O)c1cc(C)oc1C`: the cell number change came to 15.1%. Besides, the AC50 under setting [1] is 11.6 µM [rising, partial curve].

Regarding `Oc1ccccc1-c1nc(N2CCN(Cc3ccccc3)CC2)c2ccccc2n1`, the cell number change came to 1.62%. For the same compound, the AC50 under setting [1] was 16.4 µM [rising, partial curve, poor fit].

For the compound `COc1ccc(/C=C/c2nc(-c3ccccc3O)n[nH]2)cc1OC`, the cell number change is -17.9%. Moreover, under setting [1], the AC50 was 23.1 µM [falling, single point].

On to `COC(=O)c1ccc(/C=C2/SC(=S)N(CCCC(=O)Nc3ccc(O)cc3)C2=O)cc1`, for which the cell number change amounted to 12.4%. For the same compound, the AC50 under setting [1] is 5.17 µM [rising, single point].

With `Fc1ccc(COc2ccc(Br)cc2CNCc2ccncc2)cc1`, the cell number change is -4.32%.

Regarding `O=C(NCCc1ccccc1)c1ccc2c(c1)OCCCO2`, the cell number change was 18.1%.

With `C=CCn1c(C)nnc1SCC(=O)Nc1oc(C)c2c(C)n[nH]c(=O)c12`, under setting [2], the AC50 is 0.13 µM [falling, full curve, poor fit].

As for `O=C(Cc1ccc(Br)cc1)Nc1ccc(Cl)cc1`, the AC50 under setting [2] was 0.00461 µM [falling, full curve, poor fit] and the AC50 under setting [1] is 0.00461 µM [falling, full curve, poor fit].

Take `COc1ccc(-c2csc(Nc3ccccc3)[n+]2Cc2ccccc2)cc1`: the cell number change was -52.6%. The AC50 under setting [2] was 1.84 µM [falling, partial curve]. The AC50 under setting [1] was 25.9 µM [rising, single point].

As to `O=C(CCn1cnnn1)Nc1ccc(Cl)c(Cl)c1`, the cell number change is -16.2%. Besides, under setting [2], the AC50 was 0.00461 µM [falling, full curve, poor fit].

Take `CN=C(C)C1=C(O)C(C(=O)OC)C(C)(C)CC1=O` (centres undefined): the cell number change is -173%. Also, the concentration at half-maximal activity (AC50) under setting [2] is 20.6 µM [falling, partial curve]. Under setting [1], the AC50 was 20.6 µM [falling, partial curve].

As for `NCCCC[C@@H](C(=O)N1CCNCC1)n1cc(CN)nn1`, the cell number change was found to be 24.9%.

As to `CCOC(=O)c1cccc(Nc2nc(C)cc(C)n2)c1`, the AC50 under setting [1] is 6.51 µM [rising, single point].

Regarding `Nc1cc(Nc2ccccc2)ccn1`, the cell number change is -6.23%. The AC50 under setting [1] is 3.26 µM [falling, single point].

Take `Cc1ccc(COc2ccc(C(=O)NN)cc2)cc1`: the cell number change was determined as 24.8%. The AC50 under setting [1] was 13 µM [rising, partial curve, poor fit].

For `Cc1ccc(C2(C)NC(=O)N(CC(=O)NCc3cccs3)C2=O)cc1` (centres undefined), the AC50 under setting [2] was 0.146 µM [falling, full curve, poor fit] and the concentration at half-maximal activity (AC50) under setting [1] was 0.731 µM [falling, partial curve, poor fit].

(Values after PubChem BioAssay AID2685 (National Center for Advancing Translational Sciences (NCATS), 2010).)
